Experimental data published in US20180057604A1.
Numbering of substitutions follows the chain as printed. Results are given in words; binding and its absence hold for the method and conditions named. Some entries that bind do so weakly or less than the wild type.

Amino acid sequences for entries named in this document (tags omitted). A change or cut given only in a name is not applied to a line headed by its entry.
UniProt P56817: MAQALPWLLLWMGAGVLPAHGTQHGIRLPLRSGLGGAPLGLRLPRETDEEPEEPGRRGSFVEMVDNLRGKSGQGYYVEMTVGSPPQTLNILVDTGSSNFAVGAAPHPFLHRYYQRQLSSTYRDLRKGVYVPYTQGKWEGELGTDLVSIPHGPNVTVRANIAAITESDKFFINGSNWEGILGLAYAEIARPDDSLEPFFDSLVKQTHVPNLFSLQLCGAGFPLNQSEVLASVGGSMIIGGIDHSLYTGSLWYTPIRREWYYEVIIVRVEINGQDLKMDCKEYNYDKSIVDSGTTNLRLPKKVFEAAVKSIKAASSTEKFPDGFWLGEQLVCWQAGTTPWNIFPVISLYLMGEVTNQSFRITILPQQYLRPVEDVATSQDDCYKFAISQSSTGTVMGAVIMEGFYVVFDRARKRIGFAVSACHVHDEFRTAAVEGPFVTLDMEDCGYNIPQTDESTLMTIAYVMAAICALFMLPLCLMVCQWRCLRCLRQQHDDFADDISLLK

B1: 6266.1 Fab (Fab, V domains shown)
VH: QVQLVQSGAEVKKPGSSVKVSCKASGGTLSHYGVSWVRQAPGQGLEWMGNIIPGIGTANYAQKFQGRVTITADESTSTAYMELSSLRSEDTAVYYCARSGGTKYGMLDVWGQGTMVTVSS
VL: EIVMTQSPATLSVSPGERATLSCRASQSVSSNLAWYQQKPGQAPRLLIYGASTRATGIPARFSGSGSGTEFTLTISSLQSEDFAVYYCQQLILWPPRTFGGGTKVEIK
B2: 6266.2 Fab (Fab, V domains shown)
VH: B1 VH
VL: B1 VL with T53K, F83A
B3: 6266.3 Fab (Fab, V domains shown)
VH: B1 VH
VL: B1 VL with T56Y
B4: 6266.4 Fab (Fab, V domains shown)
VH: B1 VH
VL: B1 VL with T53K
B5: 6266.5 Fab (Fab, V domains shown)
VH: B1 VH with K103Q
VL: B1 VL with T53K, F83A
B6: 6266.6 Fab (Fab, V domains shown)
VH: B1 VH with K103Q
VL: B1 VL with T56Y, F83A
B7: 6266.7 Fab (Fab, V domains shown)
VH: B1 VH with M106E
VL: B1 VL with T56Y, F83A
B8: 6266.8 Fab (Fab, V domains shown)
VH: B1 VH with S30K, H31G, I55F, S99G
VL: B1 VL with T56Y
B9: 6266.9 Fab (Fab, V domains shown)
VH: B1 VH with S30K, H31G, I55F, S99G
VL: B1 VL with T53K
B10: 6266.10 Fab (Fab, V domains shown)
VH: B1 VH with H31G, I55F
VL: B1 VL with T53K
B11: 6266.11 Fab (Fab, V domains shown)
VH: B1 VH with H31G, I55F
VL: B1 VL with T56Y
B12: 6266.12 Fab (Fab, V domains shown)
VH: B1 VH with S30N, H31G, I55F
VL: B1 VL
B13: 6266.13 Fab (Fab, V domains shown)
VH: B1 VH with H31G, V34M, I55F
VL: B1 VL
B14: 6266.14 Fab (Fab, V domains shown)
VH: B1 VH with H31G, I55F, T57V, Y104W
VL: B1 VL
B15: 6266.15 Fab (Fab, V domains shown)
VH: B1 VH with H31G, I55F, M106E
VL: B1 VL
B16: 10D11 (antibody, V domains shown)
VH: QVQLQQSGPELVRPGVAVKISCKGSGYKFIDYGMHWVKQSHTKSLQWIGVISPYSGKTNYSQKFKGKATMTVDKSSSTAYMELARLTSEDSAIYYCARGLSGNFVMDFWGQGTSVTVSS
VL: DIVLTQSPASLAVSLGQRATISCRASESVDSYGPSFMHWYQQKPGQPPKLLIYRASNLESGIPARFSGSGSRTDFTLTINPVEADDVATYYCQHSNEDPPTFGGGTRLEIK
B17: 7B10 (antibody, V domains shown)
VH: QVQLQQSGPELVRPGVSVKISCKGSGYTFTDYAMHWVKQSHAKSLEWIGGISTYFGRTNYNQKFKGRATMTVDKSSSTAYMELARLTSEDSALYYCARGLSGNYVMDYWGQGTSVTVSS
VL: B16 VL with S31D, P34N, H94Q, D98A, R107K, K111R
B18: 7A4 (antibody, V domains shown)
VH: B17 VH
VL: B16 VL with S31D, P34N, H94Q, D98A, R107K, K111R
B19: 7G7 (antibody, V domains shown)
VH: QVQLQQPGSELVRPGASVKLSCKASGYTFTSYWMHWVKQRHGQGLEWIGNIYPGSGSTKYDERFKSKGTLTVDTSSSTAYMHLSSLTSEDSAVYYCTRGGYDSRAWFAYWGQGTLVTVSA
VL: DIVLTQSPASLAVSLGQRATISCRARQSVSTSSYSFMHWYRQKAGQPPKLLIKYASIQESGVPARFSGSGSGTDFTLNILPVEEEDTATYYCQHTWEIPFTFGSGTKLEIK
B20: 4C2 (antibody, V domains shown)
VH: B19 VH with R63K, Y109H
VL: B19 VL with R41Q, A44P, K107N
B21: 1B12 (antibody, V domains shown)
VH: EVKLVESGGGLVQPGGFLKLSCATSGFTFSDYYMYWVRQTPEKRLEWVASISNGGDNTYYPDTVKGRFTISRDNAKNTLYLQMSRLKSEDTAMYYCARQGALYDGYYRGAMDYWGQGTSVTVSS
VL: QIVLTQSPAIMSASLGGRVTMTCTTSSSVPSSYFHWYQQKPGSSPKLWIYSTSNLASGVPARFSGSGSGTSYSLTISSMEAEDAATYYCHQYHRSPFTFGSGTKLEIK
B22: 13D4 (antibody, V domains shown)
VH: QVQLQQSGAELMKPGASVKISCKAAGYTFSNYWIEWVKQRPGHGLEWIGEILPGSGSTKYNEKFKGKATFTADTSSNTAYMQLSSLTSEDSAVYYCARRGGYGYDGEFAYWGQGTLVTVSA
VL: DIQMTQTTSSLSASLGDRVTINCRAGQDITNYLNWFQQKPDGTVKLLIYYTSRLHSGVPSRFSGSGSGTDYSLTITNLEQEDIATYFCQQANTLPYTFGGGTKLEIK
B23: 16F6 (antibody, V domains shown)
VH: DVQLQESGPGLVKPSQSLSLTCTVTGNSITSEYAWNWIRQFPGNKLEWMGYISYSGTTSYNPSLKSRISITRDTSKNQLFLQLNSVTTEDTATYFCARYGYGNPATRYFDVWGAGTTVTVSS
VL: DVQITQSPSYLTASPGETITINCRASKSISKYLAWYQEKPGKTNKLLIYSGSTLQSGIPSRFSGSGSGTDFTLTISNLEPEDFAMYYCQQHNEYPWTFGGGTKLEIK
B24: 16G5 (antibody, V domains shown)
VH: QVQLQQPGAELVRPGAAVKLSCKASGYTFTSYWMHWVKQRPGQGLEWIGEINPTNGRTNYNENFKSKATLTVDKSSSTAYMQLSSLTSEDSAVYYCARGTRAYHFWGQGTSVTVSS
VL: DIQLTQTPASLSVSVGETVTITCRASENIYSNLAWYQQKQGKSPQLLVYAATDLADGVPSRFRGSGSGTQYSLKINSLQSEDFGSYYCQHFWGTPLTFGAGTKLELI
B25: 8A2 (antibody, V domains shown)
VH: B17 VH with A33G, G50V, T53P, F55S, K63N, R67K, M81L, L93I, M106V
VL: B16 VL with P34N, H94Q, D98G, R107K
B26: 15D2 (antibody, V domains shown)
VH: B17 VH with F29V, G50V, T53F, F55S, R57K, K65M, R67K, L93I
VL: B16 VL with P34N, H94Q, D98G, R107K
B27: 7A4 HC/8A2 LC (antibody, V domains shown)
VH: B17 VH
VL: B16 VL with P34N, H94Q, D98G, R107K

The binders below were run against His-tagged BACE1 protein (Example 15) (Homo sapiens (Human)) (UniProt P56817) (assay: SPR, His-BACE1 captured by anti-His, Fab injected).

binding, binds:
B1, B2, B3, B4, B5, B6, B7, B8, B9, B10, B11, B12, B13, B14, B15

These binders were tested against human TfR, full length, on cells (human) (UniProt P02786) (assay: FACS, 293 cells, 1 uM holo-Tf).

binding, binds:
B16, B17, B18

These binders were tested against cyno TfR, full length, transiently expressed in 293 cells (cynomolgus monkey) (assay: FACS, 293 cells, 1 uM holo-Tf).

binding, binds:
B16, B17, B19, B20, B21, B22, B23, B24, B18, B25, B26

What follows are binders tested against human TfR extracellular domain with N-terminal His tag (human) (UniProt P02786) (assay: ELISA).

binding, binds:
B16, B17, B18

Each binder was assayed against cyno TfR extracellular domain (analogous construct to human TfR ecd) (cynomolgus monkey) (assay: ELISA).

binding, binds:
B16, B17, B19, B20, B21, B22, B23, B24, B18, B25, B27, B26

These binders were tested against human TfR, full length, on cells (human) (UniProt P02786) (assay: FACS on transfected 293 cells, 1 uM holo-Tf present).

binding, binds:
B16, B17, B18

The binders below were run against cyno TfR, full length, transiently expressed in 293 cells (cynomolgus monkey) in the same assay as above.

binding, binds:
B16, B17, B19, B20, B21, B22, B23, B24, B18, B25, B26
